Values quoted from earlier work, collected in US20110104179A1 (priority 2009, published 2011).
At least one structure is not confirmed: it was looked up by name or label, or the drawing left a doubt.

Amino acid sequences for entries named in this document (tags omitted). Residues count along the entry.
UniProt P95493, 230-736: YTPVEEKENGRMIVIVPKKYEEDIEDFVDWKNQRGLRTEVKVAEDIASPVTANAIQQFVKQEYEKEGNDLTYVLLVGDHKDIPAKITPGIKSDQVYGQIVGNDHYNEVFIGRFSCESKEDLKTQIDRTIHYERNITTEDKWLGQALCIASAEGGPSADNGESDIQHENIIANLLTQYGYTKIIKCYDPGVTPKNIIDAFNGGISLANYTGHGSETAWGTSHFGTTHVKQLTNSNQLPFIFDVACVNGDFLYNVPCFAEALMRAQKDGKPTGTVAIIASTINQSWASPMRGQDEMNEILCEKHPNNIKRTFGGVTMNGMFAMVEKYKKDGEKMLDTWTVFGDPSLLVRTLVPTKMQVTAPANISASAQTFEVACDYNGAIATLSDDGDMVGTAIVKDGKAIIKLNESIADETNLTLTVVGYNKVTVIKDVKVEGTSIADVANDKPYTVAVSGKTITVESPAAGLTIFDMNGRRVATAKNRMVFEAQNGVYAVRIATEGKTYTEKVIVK

Biological target: RgpB (Porphyromonas gingivalis, UniProt P95493)
Settings: comparison statement; cited from earlier work

C[C@H]1c2cccc(O)c2C(=O)C2=C(O)[C@]3(O)C(=O)C(C(N)=O)=C(O)[C@@H](N(C)C)[C@@H]3[C@@H](O)[C@@H]21 [doxycycline]
type of inhibition: uncompetitive inhibitor
